Laboratory results taken from PMC7707563.
Results are given in words; binding and its absence hold for the method and conditions named. For some assays here: Binding seen in cells or lysates may run through a third protein. Some binding calls cover weakened binding; strength is not graded here. Tags and fused reporters may be left off the sequences shown.

Sequences of proteins named here, by UniProt entry; tags and fusion partners are left off. Residues count along the entry.
UniProt Q9NPF7, residues 20-189: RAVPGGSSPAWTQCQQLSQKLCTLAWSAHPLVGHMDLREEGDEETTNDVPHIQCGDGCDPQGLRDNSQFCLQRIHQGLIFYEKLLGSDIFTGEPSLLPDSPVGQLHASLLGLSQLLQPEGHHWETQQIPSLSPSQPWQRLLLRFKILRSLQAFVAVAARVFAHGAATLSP

How the values were obtained:
[1] = biological target: human IL-23 p19 (aa20-189) (human) (UniProt Q9NPF7); experiment: co-IP; concentrated, pre-cleared supernatants of untagged p19 and EBI3 co-transfected HEK293FT cells; anti-p19 antibody and Protein G sepharose, PBS-0.05% Tween 20, 4°C; EBI3 Western blot
[2] = biological target: human IL-23 p19 (aa20-189) (human) (UniProt Q9NPF7); experiment: ELISA; sandwich: plate coated with anti-p19 antibody, concentrated supernatants of p19 and EBI3-His transfected HEK293FT cells 2 hrs at room temperature, detection with biotinylated EBI3 antibody and HRP-Avidin

B1: EBI3 (aa21-229), untagged (protein, UniProt Q14213 21-229)
chain: RKGPPAALTLPRVQCRASRYPIAVDCSWTLPPAPNSTSPVSFIATYRLGMAARGHSWPCLQQTPTSTSCTITDVQLFSMAPYVLNVTAVHPWGSSSSFVPFITEHIIKPDPPEGVRLSPLAERQLQVQWEPPGSWPFPEIFSLKYWIRYKRQGAARFHRVGPIEATSFILRAVRPRARYYVQVAAQDLTDYGELSDWSLPATATMSLGK
binding [1]: binds

B2: C-terminally 10 x His-tagged EBI3 (protein, UniProt Q14213 21-229)
chain: RKGPPAALTLPRVQCRASRYPIAVDCSWTLPPAPNSTSPVSFIATYRLGMAARGHSWPCLQQTPTSTSCTITDVQLFSMAPYVLNVTAVHPWGSSSSFVPFITEHIIKPDPPEGVRLSPLAERQLQVQWEPPGSWPFPEIFSLKYWIRYKRQGAARFHRVGPIEATSFILRAVRPRARYYVQVAAQDLTDYGELSDWSLPATATMSLGK
binding [2]: binds
